Some of the results follow. These are further read-outs of the screen, such as a control signal, another cell line or another target. No call is given for them. Compounds called inactive in the main read-out are mostly missing here. The note in brackets gives the kind of curve behind each potency; many fits are weak.

The nature of this assay: Cell signaling CRE-BLA (Fsk stim). Conditions: CHO CRE-bla reporter (cAMP response element driving beta-lactamase), forskolin EC10, beta-lactamase ratio; measured here: 460 nm blue channel. In short, it runs like this:
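CRE-bla CHO reporter cells treated with compound titration plus EC10 NKH 477 (water-soluble forskolin), incubated 3 h at 37 °C; CCF4 loading 2 h at room temperature, 460/530 nm emission ratio read, AC50 values derived for positive or negative modulators.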
In the case of `Cc1cc2occ(CC(=O)O)c2cc1C`, the AC50 is 5.01 µM [falling, partial curve, poor fit].

For `C=CCn1cnc2c(c1=O)c1nc3ccccc3nc1n2/N=C/c1cc(OC)c(OC)c(OC)c1`, the AC50 is 6.31 µM [rising, partial curve].

For the molecule `Cc1c(-c2ccccc2)nc(N)c(C#N)c1-c1ccco1`, the AC50 is 15.8 µM [rising, partial curve].

For `CCOC(=O)C1=C[C@@]2(CC)CCCN3CCc4c(n1c1ccccc41)[C@H]32`, the AC50 is 31.6 µM [falling, single point].

As to `Cc1cnc(CNc2nc(-c3ccc4c(c3)OCO4)nc3ccccc23)cn1`, the AC50 was 10 µM [rising, partial curve].

On to `COCCn1c(=O)c(-c2ccc(OC)cc2)nc2cnc(N3CCOCC3)nc21`, for which the AC50 is 2.51 µM [rising, full curve].

For `Cn1c(N2CCOCC2)nc(-c2ccccc2)c1-c1ccccc1`, the half-maximal activity concentration (AC50) was 10 µM [rising, single point].

With `CC(C)C(NC(=O)C1CCCCC1)C(=O)NC1CCN(Cc2ccccc2)CC1` (configuration not stated), the AC50 was 0.794 µM [falling, full curve].

On to `CC1(C)C(c2ccc(Cl)cc2)=[N+]([O-])C2(CCCC/C2=N\O)N1O` (configuration not stated), for which the AC50 was 0.00316 µM [falling, full curve, poor fit].

Regarding `C=CCOC(=O)C1=C(C)NC(SC)=C(C#N)C1c1ccc(OCC)cc1` (configuration not stated), the AC50 was 12.6 µM [falling, partial curve].

Regarding `O=C(c1cccc(S(=O)(=O)N2CCCC2)c1)c1cccc(S(=O)(=O)N2CCCC2)c1`, the AC50 is 0.398 µM [rising, full curve].

Take `Cc1cc(C)n(-c2ccc(C(=O)Nc3ccccc3N3CCOCC3)cc2)n1`: the AC50 was 25.1 µM [rising, single point].

In the case of `CC1CCC(C(=O)O)([C@H](Br)C(=O)O)CC1` (some centres not stated), the AC50 was 0.000794 µM [falling, full curve, poor fit].

With `O=C(CCCN1CCC(O)(c2ccc(Cl)cc2)CC1)c1ccc(F)cc1`, the AC50 was 25.1 µM [falling, partial curve].

For the molecule `COc1ccc(C(c2nnnn2C2CCCCC2)N2CCN(c3ccc(OC)cc3)CC2)cc1` (configuration not stated), the AC50 was 10 µM [rising, partial curve].

As to `CC(=O)Nc1ccc(OCC(O)CN2CCN(c3cc(Cl)ccc3C)CC2)cc1` (configuration not stated), the AC50 is 0.0631 µM [falling, full curve, poor fit].

Turning to `Cc1ccc2cc(CCNC(=O)c3ccco3)c(=O)[nH]c2c1C`, the AC50 was 10 µM [falling, partial curve].

As for `Cc1nn(Cc2ccc(Cl)cc2)c(C)c1NC(=O)C1CC=CCC1C(=O)O` (configuration not stated), the AC50 is 0.398 µM [falling, full curve].

For the molecule `CCOC(=O)CSc1nc(N)c(C#N)c(-c2cccs2)c1C#N`, the AC50 was 10 µM [rising, partial curve].

For the molecule `CCOC(=O)N1CCC(NC(=O)c2cc(C(=O)Nc3ccc(OC)c(OC)c3)ccc2CO)CC1`, the AC50 was 1.58 µM [rising, partial curve].

With `O=C1C(=O)N(CCCN2CCOCC2)C(c2ccccn2)/C1=C(\O)c1ccc2c(c1)OCCO2` (configuration not stated), the AC50 was 5.01 µM [falling, partial curve].

Consider `CCCCC(=O)Nc1nn(C)c2nc3c(C)cccc3cc12`, for which the AC50 is 0.794 µM [rising, full curve].

As for `Brc1cccc(-c2nnc3n2CCC3)c1`, the AC50 was 5.01 µM [falling, single point].

Regarding `CN(C)CCN1C(=O)C(=O)/C(=C(/O)c2ccc(S(=O)(=O)N3CCOCC3)cc2)C1c1ccccc1` (configuration not stated), the AC50 is 0.00398 µM [falling, full curve, poor fit].

For the molecule `COc1ccc(-n2c(Cc3cccn3C)nnc2SCC(=O)Nc2ccc3c(c2)OCCO3)cc1`, the AC50 is 2.51 µM [falling, full curve].

Take `CCCn1c(=NC(=O)c2ccco2)c(C(=O)OCC)cc2c(=O)n3ccccc3nc21`: the AC50 is 12.6 µM [rising, partial curve].

For `Cc1cc(C(=O)CSc2n[nH]c(N)n2)c(C)n1-c1cccc(F)c1`, the AC50 was 15.8 µM [rising, single point].

Consider `COc1cccc(NC(=O)CSc2nnc(-c3cc(C)n(-c4ccccc4)c3C)o2)c1`, for which the AC50 was 10 µM [rising, single point].

Consider `c1ccc(-c2nc(N3CCOCC3)c3ccccc3n2)nc1`, for which the AC50 is 12.6 µM [rising, single point].

`CCOC(=O)CCc1c(C)c2ccc(OCC(=O)OC(C)C)cc2oc1=O`: the AC50 was 10 µM [rising, single point].

For `O=C(c1ccco1)N1CCN(c2c(-c3ccccc3)c3cc(Cl)ccc3[nH]c2=O)CC1`, the AC50 was 10 µM [falling, partial curve].

Take `COc1cccc(-c2cc(C(=O)NCc3ccco3)no2)c1`: the AC50 was 0.00501 µM [falling, full curve, poor fit].

Take `O=C(Oc1cc(=O)oc2ccccc12)c1ccco1`: the AC50 was 25.1 µM [rising, single point].

On to `CCn1nc(NC(=O)c2ccncc2)c2cc3ccccc3nc21`, for which the AC50 is 10 µM [rising, partial curve].

With `Cn1c(C(=O)N2CCCc3ccccc32)cc2c(=O)n3ccccc3nc21`, the AC50 was 12.6 µM [rising, partial curve].

With `Oc1ccc([C@@H]2CNCCc3c2cc(O)c(O)c3Cl)cc1`, the AC50 was 25.1 µM [falling, partial curve, poor fit].

Regarding `N#Cc1nc(COc2ccccc2)oc1N1CCC(Cc2ccccc2)CC1`, the AC50 was 2 µM [rising, full curve].

For the molecule `CC(C)n1c(SCC(N)=O)nc2c1c(=O)n(C)c(=O)n2C`, the AC50 is 25.1 µM [rising, single point].

On to `COC(=O)C1=C(C)OC(N)=C(C#N)C1c1cc(OC)c(OCC(N)=O)cc1Cl` (configuration not stated), for which the AC50 is 0.00794 µM [falling, full curve].

For the molecule `NC(=O)NC(=O)Nc1ccccc1Cl`, the AC50 was 0.00398 µM [falling, full curve, poor fit].

With `CCCN1C(=O)SC(CC(=O)Nc2ccc(Br)cc2)C1=O` (configuration not stated), the AC50 was 1.26 µM [rising, partial curve].

As for `Cc1ccc2nc(NC(=O)C3CCN(S(=O)(=O)c4cccs4)CC3)sc2c1`, the AC50 is 0.398 µM [falling, single point].

Turning to `COc1cccc2c1nc(C)c1cc(C)oc12`, the AC50 is 10 µM [rising, partial curve].

Take `COc1ccc(-c2oc3ncnc(NCCCN4CCOCC4)c3c2-c2ccc(OC)cc2)cc1`: the AC50 was 5.01 µM [rising, partial curve].

As for `Cc1ccccc1NC(=O)CSc1nc(N)c(C#N)c(-c2cccs2)c1C#N`, the AC50 is 12.6 µM [rising, single point].

For the molecule `CCc1[nH]nc2c1C1(CCN(C(=O)OCc3ccccc3)CC1)C(C#N)=C(N)O2`, the AC50 was 7.94 µM [rising, partial curve].

On to `NCCSc1nc(-c2ccccc2)c(-c2ccccc2)o1`, for which the AC50 was 1 µM [rising, single point].

For the molecule `COc1nc2cc(C)ccc2cc1-c1noc(-c2cccnc2)n1`, the AC50 was 20 µM [falling, single point].

Regarding `O=C(Nc1cc(C(F)(F)F)ccc1N1CCOCC1)c1cncc(Br)c1`, the AC50 was 12.6 µM [rising, single point].

For `O=C(Nc1ncccc1O)c1cccc(S(=O)(=O)N2CCc3ccccc32)c1`, the AC50 was 3.16 µM [falling, partial curve].

Turning to `Cc1c(NC(=O)CSc2ccccc2C(=O)Nc2cccnc2)c(=O)n(-c2ccccc2)n1C`, the AC50 was 5.01 µM [rising, single point].

In the case of `COc1ccc(NC2=CC(=O)CC(C)(C)C2)cc1OC`, the AC50 is 15.8 µM [rising, single point].

In the case of `Cn1c(=O)c(-c2cccs2)nc2cncnc21`, the AC50 was 10 µM [rising, partial curve].

In the case of `CCn1c2ccccc2c2nc3cc(S(=O)(=O)N4CCOCC4)ccc3nc21`, the AC50 is 2 µM [rising, full curve].

Take `Cc1ccnc(SCCn2c(Br)nc3c2c(=O)[nH]c(=O)n3C)n1`: the AC50 was 3.98 µM [rising, partial curve].

Consider `Cc1noc(C)c1C(=O)N1CCC2(CCN(C(=O)Nc3ccccc3)CC2)CC1`, for which the AC50 is 5.01 µM [falling, single point].

Regarding `N#Cc1cccc(-c2nc(Nc3ccncc3)c3ccccc3n2)c1`, the AC50 was 2.51 µM [rising, full curve].

As to `CCc1nn(CC(=O)NCCCN(CC)Cc2ccccc2)c(=O)c2cc3sccc3n12`, the AC50 is 6.31 µM [falling, partial curve].

Consider `COCCOC(=O)C(C#N)c1nc2ccccc2nc1N1CCCC1` (configuration not stated), for which the AC50 is 1.26 µM [rising, partial curve].

For `COCCNc1nnc(SCC(=O)c2ccc3c(c2)OCO3)s1`, the AC50 was 10 µM [rising, single point].

Consider `COCCCNC(=O)c1cc2c(=O)n3cccc(C)c3nc2n(C(C)C)c1=N`, for which the AC50 was 3.16 µM [rising, full curve].

On to `CN1CCN(c2nc(-c3ccc(N(C)C)cc3)nc3ccccc23)CC1`, for which the concentration at half-maximal activity (AC50) was 10 µM [rising, single point].

For the molecule `COc1ccc(Cl)cc1NC(=O)C1CCCN(c2cc(C)nc3ncnn23)C1` (configuration not stated), the AC50 is 10 µM [rising, partial curve].

`CCCCn1c(=O)[nH]c(=O)c2c1nc(COc1ccc(C#N)cc1)n2CCC`: the AC50 was 12.6 µM [rising, partial curve].

Take `CCCNC(=O)Cc1cc(=O)[nH]c(=O)[nH]1`: the AC50 was 1 µM [rising, partial curve].

`CCCCC(c1nnnn1CCOC)N1CCN(C(=O)c2ccco2)CC1` (configuration not stated): the AC50 is 3.16 µM [rising, single point].

Regarding `S=c1[nH]c2ccc(Cl)cc2[nH]1`, the AC50 was 0.126 µM [falling, full curve, poor fit].

Values taken from PubChem BioAssay AID662 (National Center for Advancing Translational Sciences (NCATS), 2007).
